Test results taken from BigSolDB 2.1.

CN1C(=O)CN=C(c2ccccc2)c2cc(Cl)ccc21
solubility (mole fraction)
Details | 298.2 K | 303.2 K | 308.2 K | 313.2 K | 318.2 K
in NMP | 0.0774 | 0.126 | 0.138 | 0.153 | 0.163
in ethanol | 0.00486 | 0.00521 | 0.00553 | 0.00663 | 0.00774
in propylene glycol | 0.00201 | 0.00275 | 0.00464 | 0.00535 | 0.00679
in water | 1.26e-06 | 1.65e-06 | 2.39e-06 | 2.87e-06 | 4.2e-06

Details | solubility (mole fraction)
in PEG-200, 298.2 K | 0.0157
in PEG-200, 303.2 K | 0.0397
in PEG-200, 308.2 K | 0.0805
in PEG-200, 313.2 K | 0.151
in PEG-200, 318.2 K | 0.173
